Data as given in PubChem BioAssay AID686938 (Drosophila RNAi Screening Center, 2013)
Test: 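Knock-downs reducing store-operated calcium influx in Drosophila cells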 (primary screen). Cell system: Drosophila S2R+ cells. Reagent: long dsRNA against Drosophila genes, about 0.25 µg dsRNA per well, roughly 10,000 cells. Time to read-out: 5 days of knock-down before the calcium assay. Challenge: thapsigargin (SERCA pump blocker) to empty calcium stores; entry signal taken 4 min after adding it. Read-out: 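Per-well fluo-4 fluorescence in two replicates, unnormalised, measured in resting cells and 4 min after store depletion by the SERCA blocker thapsigargin; ratio of the two present in few wells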. Scale: calcium entry signal: higher = stronger calcium signal after store depletion; entry to resting ratio: higher = more calcium entry relative to resting level; resting calcium signal: higher = higher resting calcium signal. Call rule: 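Hit if the duplicate-averaged plate z-score for entry over resting signal is under −3; wells with weak total dye signal (Fmax z < −2) or more than 5 off-targets removed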. Meaning of the calls: active = strongly reduced calcium entry; inactive = no strong reduction.
In all, the deposit lists about 23,000 reagents; this is a random part of those that have a named target and a result. Of all reagents, 75 (0.33%) were called active. 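Raw plate signals without normalisation; calls rest on plate z-scores that were not deposited; ratio present for only 364 wells.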 Unmarked entries are inactive. The numbers tell different reagents against one gene apart. A plus sign joins genes that one reagent is predicted to hit. No sequences are given here. Not stated in the record: the dose of the treatment.

| calcium entry signal, replicate 1 (fluorescence units) | calcium entry signal, replicate 2 (fluorescence units) | entry to resting ratio | resting calcium signal, replicate 1 (fluorescence units) | resting calcium signal, replicate 2 (fluorescence units) | target gene | dsRNA no. |
| --- | --- | --- | --- | --- | --- | --- |
| 4.62e7 | – | – | 2.10e7 | – | CG10702 | 1 |
| 2.95e7 | 4.62e7 | – | 1.55e7 | 1.88e7 | CG15534 | 1 |
| 3.71e7 | 4.83e7 | – | 2.10e7 | 2.53e7 | Vm32E (Vitelline membrane 32E) | 1 |
| 4.72e7 | 4.56e7 | 2.1 | 2.28e7 | 1.94e7 | CG42233 | 1 |
| 4.23e7 | 5.27e7 | 2.1 | 2.02e7 | 2.16e7 | CG42233 | 2 |
| 3.43e7 | 3.29e7 | – | 1.52e7 | 1.48e7 | CG34144 (retired record) | 1 |
| 4.03e7 | 4.31e7 | – | 1.88e7 | 1.94e7 | CG34144 (retired record) | 2 |
| 4.33e7 | 6.30e7 | – | 1.98e7 | 2.83e7 | CG34144 (retired record) | 3 |
| 3.94e7 | 4.68e7 | – | 1.90e7 | 1.97e7 | CG34144 (retired record) | 4 |
| 2.03e7 | 1.75e7 | – | 1.21e7 | 1.77e7 | Diap1 (Death-associated inhibitor of apoptosis 1) | 1 |
| 4.42e7 | 4.07e7 | – | 3.10e7 | 1.65e7 | CG32036 | 1 |
| 3.99e7 | – | – | 1.93e7 | – | CG32833 | 1 |
| 2.38e7 | 4.56e7 | – | 1.21e7 | 1.85e7 | pip (pipe) | 1 |
| 3.63e7 | 3.38e7 | – | 1.71e7 | 1.93e7 | CG34296 | 1 |

Copied from above (2 entries):
| calcium entry signal, replicate 1 (fluorescence units) | calcium entry signal, replicate 2 (fluorescence units) | entry to resting ratio | resting calcium signal, replicate 1 (fluorescence units) | resting calcium signal, replicate 2 (fluorescence units) | target gene | dsRNA no. |
| --- | --- | --- | --- | --- | --- | --- |
| 4.72e7 | 4.56e7 | 2.1 | 2.28e7 | 1.94e7 | CG42233 | 1 |
| 4.23e7 | 5.27e7 | 2.1 | 2.02e7 | 2.16e7 | CG42233 | 2 |

Additional entries follow:
| calcium entry signal, replicate 1 (fluorescence units) | calcium entry signal, replicate 2 (fluorescence units) | entry to resting ratio | resting calcium signal, replicate 1 (fluorescence units) | resting calcium signal, replicate 2 (fluorescence units) | target gene | dsRNA no. |
| --- | --- | --- | --- | --- | --- | --- |
| 2.04e7 | 3.95e7 | 1.9 | 1.05e7 | 1.58e7 | PsGEF (Protostome-specific GEF) | 1 |
| 2.84e7 | 3.66e7 | 2 | 1.42e7 | 1.56e7 | PsGEF (Protostome-specific GEF) | 2 |
| 3.31e7 | 4.26e7 | 2.2 | 1.54e7 | 1.77e7 | PsGEF (Protostome-specific GEF) | 3 |
| 3.52e7 | 3.68e7 | – | 1.59e7 | 1.77e7 | CG9631 | 1 |
| 3.31e7 | 5.23e7 | – | 1.64e7 | 2.49e7 | Obp57a (Odorant-binding protein 57a) | 1 |
| 3.56e7 | 2.92e7 | – | 1.96e7 | 1.56e7 | mod(mdg4) + pre-mod(mdg4)-Z + pre-mod(mdg4)-T | 1 |
| 2.34e7 | 2.89e7 | – | 3.19e7 | 1.25e7 | mod(mdg4) + pre-mod(mdg4)-Z + pre-mod(mdg4)-T | 2 |
| 2.55e7 | 3.25e7 | – | 1.17e7 | 1.54e7 | CstF50 (Cleavage stimulation factor 50 kD subunit) | 1 |
| 4.73e7 | 5.04e7 | – | 2.09e7 | 3.35e7 | Skp2 + CG1103 | 1 |
| 3.84e7 | 4.97e7 | – | 1.93e7 | 2.62e7 | Skp2 + CG1103 | 2 |
